# Laboratory results reported in the supplement of paper PMC4683952.
# This is one part of the list. No stated cut-off is given here; in the data, active = 2 or more and inactive = the rest. Repeats in this data set agree poorly, so a single value says little.
# Test system: Lgr5 (MarsCy1-Lgr5-EGFP, U2OS)
# Test: cell-surface Lgr5 expression (SCi1 fluorescence, background-subtracted) relative to WT DMSO (fold of DMSO control); higher = more Lgr5 at the plasma membrane
# Settings: U2OS MarsCy1-Lgr5-EGFP stable; treatment time: overnight; library: ActiProbe-5K (TimTec); 25 µM
row,SMILES,cell-surface Lgr5 expression
1,COC(=O)c1sc(C(=O)OC)c(O)c1O,inactive: 1.08
2,N#CC1=C(N)OC2=C(C(=O)CCC2)C1c1ccc(Br)s1 (stereo not given),inactive: 0.925
3,Cc1ccc(/C=N\c2sc3c(c2C#N)CCCC3)o1,inactive: 1.05
4,c1csc(-c2nc3sc(-c4cccs4)nc3s2)c1,inactive: 1.27
5,c1ccc(-n2cnnn2)cc1,inactive: 0.902
6,C=CCN1C(=O)C2(NC(=O)c3ccccc3N2)c2ccccc21 (stereo not given),inactive: 1.1
7,C(C(N\N=C1\CCCC1)=O)C(=O)NCC=C,inactive: 1.64
8,Sc1nccc2ccccc12,inactive: 1.17
9,O=[N+]([O-])c1ccc(N2CCCC2)c(C(F)(F)F)c1,inactive: 1.1
10,O=[N+]([O-])c1ccc([S](=O)(O)Nc2ccc(NS(=O)(=O)c3ccccc3)cc2)cc1,inactive: 1.01
11,O=c1[nH]cnc2c1nc(N1CCOCC1)n2C1OC(CO)C(O)C1O (stereo not given),inactive: 1.23
12,Cn1c(=S)oc2ccccc21,inactive: 1.09
13,COc1ccc2[nH]c(=O)c(=O)[nH]c2c1,inactive: 1.26
14,O=C([O-])CCNC(=O)c1cc(=O)[nH]c(=O)[nH]1,inactive: 1.09
15,C=CCOC1CCCCO1 (stereo not given),inactive: 1.44
16,CN1CCN(Cc2c(C(=O)NN)nnn2-c2nonc2N)CC1,inactive: 1.08
17,N#Cc1c(NC(=O)C2CCCO2)sc2c1CCCC2 (stereo not given),inactive: 1.37
18,Cc1cs/c(=N\N=C/c2ccc(OCc3ccccc3)cc2)n1N,inactive: 0.833
19,CN1CCC2(CC1)C(C#N)=C(O)NC1=C2C(=O)CC(C)(C)C1,inactive: 1.06
20,O=c1cc(-c2cccs2)sc2nc(-c3ccco3)nn12,inactive: 1.05
21,Cc1n[nH]c(-c2[nH]nc(C)c2[N+](=O)[O-])c1[N+](=O)[O-],inactive: 1.45
22,CS(=O)(=O)c1nnnn1-c1ccccc1,inactive: 0.745
23,Nn1c(SCc2ccccc2F)nnc1-c1ccccc1,inactive: 1.34
24,NNC(=O)C(C(=O)NN)C1CCS(=O)(=O)C1 (stereo not given),inactive: 1.1

# Some of the entries so far, with tabs:
row	SMILES	cell-surface Lgr5 expression
21	Cc1n[nH]c(-c2[nH]nc(C)c2[N+](=O)[O-])c1[N+](=O)[O-]	inactive: 1.45
22	CS(=O)(=O)c1nnnn1-c1ccccc1	inactive: 0.745

# Next compounds follow.

row,SMILES,cell-surface Lgr5 expression
1,Nc1nonc1-c1noc(-c2cc(F)c(F)cc2Cl)n1,inactive: 0.447
2,N#C/C(=C\Nc1ccc(F)c(Cl)c1)C(N)=S,inactive: 1.11
3,Cc1cc(C)n(N)c(=O)c1C(=O)O,inactive: 1.09
4,NC1=NN(c2ccccc2)CC1,inactive: 1.18
5,Cc1cc(C(=O)NC(C(=O)[O-])C(C)C)co1.[Na+] (stereo not given),inactive: 1.13
6,NC(=O)c1c(-c2ccsc2)noc1N,inactive: 1.03
7,CCOC(=O)c1[nH]c(=O)[nH]c1CC1C(=O)CC(C)(C)CC1=O,inactive: 1.24
8,Cc1nn(CCl)c(C)c1[N+](=O)[O-],inactive: 0.993
9,NC(=O)C1(N2CCCCC2)CCNCC1,inactive: 1.24
10,CCOC(=O)/C(=C\C1=CC=C([N+](=O)[O-])C1)NC(=O)c1cccc(C)c1,inactive: 0.996
11,CCC(C)SCc1cc(C(=O)O)oc1C (stereo not given),inactive: 1.22
12,O=C1Nc2ccccc2/C1=N\N1C(=O)C2C=CC=CC2C1=O (stereo not given),inactive: 1.39
13,Cc1cc(-c2cc(C)[nH]n2)n[nH]1,inactive: 1.49
14,CCc1cc2c(=O)[nH]c(S)nc2s1,inactive: 1.47
15,O=C(O)C1CC(=O)N(C2CCCCC2)C1 (stereo not given),inactive: 1.45
16,Cc1c(Br)c([N+](=O)[O-])nn1CC(=O)NNC(=O)Cn1cc([N+](=O)[O-])cn1,inactive: 1.2
17,Cc1cc(C)n(/N=C/c2ccc(Br)s2)c(=O)c1C#N,inactive: 0.963
18,c1ccc(C(CNCC2CCCO2)c2ccccc2)cc1 (stereo not given),inactive: 1.56
19,Cc1nc2nonc2c2[nH]ccc(=O)c12,inactive: 0.91
20,Sc1nc2cc(Cl)cc(Cl)c2o1,inactive: 1.23
21,c1cc(N2CCCC2)ccn1,inactive: 1.41
22,O=C(Nc1ccc2c(c1)OCO2)OCCCl,inactive: 1.13
23,N#CCNC(=O)CSc1nc(SCC(=O)NCC#N)nc(SCC(=O)NCC#N)n1,inactive: 1.58
24,Cc1ccc(C2C(C(=O)c3ccco3)=C(O)C(=O)N2CCCN(C)C)o1 (stereo not given),inactive: 1.14

# Retrieved by compound from the list above:
row,SMILES,cell-surface Lgr5 expression
6,NC(=O)c1c(-c2ccsc2)noc1N,inactive: 1.03
10,CCOC(=O)/C(=C\C1=CC=C([N+](=O)[O-])C1)NC(=O)c1cccc(C)c1,inactive: 0.996

# Continued:

row,SMILES,cell-surface Lgr5 expression
1,Cn1cc(S(=O)(=O)Nc2cnn(COc3cccc(Cl)c3)c2)cn1,inactive: 1.16
2,Cc1c(Br)c(C(F)(F)F)nn1CCC(=O)NC1=NCCS1,inactive: 1.25
3,CN(C)Cc1c(C#N)c2ccccc2n1C,inactive: 1.37
4,COC(=O)c1cc(C(C)=O)c(C)o1,inactive: 1.28
5,CS(=O)(=O)O.c1ccc2c(c1)CCc1c-2n[nH]c1-c1ccncc1,inactive: 0.918
6,COC(=O)C1=CN(Cc2cccs2)C=C(C(=O)OC)C1c1cccs1,inactive: 0.859
7,CC1CCN(c2nc(=O)[nH]c(=O)[nH]2)CC1,inactive: 1.17
8,O=C1c2ccccc2C2=NNS(=O)(=O)c3cccc1c32,inactive: 1.06
9,Cn1c(=S)n(CN2CCC3(CC2)OCCO3)c2ccccc21,inactive: 1.12
10,CN(C)S(=O)(=O)N(C)CC12CC3CC(CC(C3)C1)C2,inactive: 1.46
11,N/N=C1/C2CN3CCN(C2)CC1(Cc1ccccc1)C3,inactive: 1.31
12,CC1CCC2(CC1)N[C@H](C(=O)O)CS2 (stereo not given in full),inactive: 1.18
13,CC1(C)CC(=O)C2=C(C1)OC(=O)CC2c1cccs1 (stereo not given),inactive: 1.03
14,Cc1ccc2c(c1)c1c3n2CCN(C2CCO2)C3CCC1 (stereo not given),inactive: 1.37
15,CCOC(=O)N1CCN(C(=O)C(C)(C)C)CC1,inactive: 1.2
16,Cc1n[nH]c(=O)nc1NCCN(C)C,inactive: 0.911
17,CC(O)Cc1nnc(S)n1C (stereo not given),inactive: 1.45
18,CC(=O)c1sc(NC(=O)C2CC3CCC2C3)nc1C (stereo not given),inactive: 1.17
19,N#Cc1c(-c2ccccc2)cc(-c2ccc(F)cc2)nc1F,active: 2.24
20,Cn1c(Br)nc([N+](=O)[O-])c1Br,inactive: 0.392
21,CC(=O)OC1COC(C#N)C(OC(C)=O)C1OC(C)=O (stereo not given),inactive: 1.05
22,Cc1cc(N2C(=O)CCC2=O)no1,inactive: 0.839
